Measured values from paper PMC7145602.
Results are given in words; binding and its absence hold for the method and conditions named. Binding seen in cells or lysates may run through a third protein. Some binding calls cover weakened binding; strength is not graded here. Where a sequence is shown, tags or fusion partners need not be part of it.

Amino acid sequences for entries named in this document (tags omitted).
UniProt P06730: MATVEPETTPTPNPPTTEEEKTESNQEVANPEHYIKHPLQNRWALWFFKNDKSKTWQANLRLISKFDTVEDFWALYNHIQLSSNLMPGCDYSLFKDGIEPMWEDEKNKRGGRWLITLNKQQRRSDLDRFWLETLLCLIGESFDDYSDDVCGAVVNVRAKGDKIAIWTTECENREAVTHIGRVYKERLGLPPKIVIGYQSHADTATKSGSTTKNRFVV

T1: Flag-Regnase-1 (mouse) (UniProt Q5D1E7)
T1 sequence: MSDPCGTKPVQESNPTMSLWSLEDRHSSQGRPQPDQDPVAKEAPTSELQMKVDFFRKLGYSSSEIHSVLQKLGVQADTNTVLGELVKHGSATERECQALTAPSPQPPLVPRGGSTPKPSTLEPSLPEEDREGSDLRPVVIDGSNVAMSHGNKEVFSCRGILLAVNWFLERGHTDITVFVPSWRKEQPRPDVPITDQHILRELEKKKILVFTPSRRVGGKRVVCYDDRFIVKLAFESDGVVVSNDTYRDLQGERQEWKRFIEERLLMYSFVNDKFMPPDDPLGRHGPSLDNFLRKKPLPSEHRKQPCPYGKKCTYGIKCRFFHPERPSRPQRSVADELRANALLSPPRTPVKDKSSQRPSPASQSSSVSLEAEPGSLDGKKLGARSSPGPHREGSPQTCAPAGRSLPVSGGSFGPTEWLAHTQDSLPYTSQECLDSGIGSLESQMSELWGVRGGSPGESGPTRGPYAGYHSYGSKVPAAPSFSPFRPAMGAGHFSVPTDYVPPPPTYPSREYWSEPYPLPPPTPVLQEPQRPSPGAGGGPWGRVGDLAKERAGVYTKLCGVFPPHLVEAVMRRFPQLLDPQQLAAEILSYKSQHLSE

T2: Flag-Regnase-1 K257A/R258A (KRAA) mutant (mouse) (UniProt Q5D1E7)
T2 sequence: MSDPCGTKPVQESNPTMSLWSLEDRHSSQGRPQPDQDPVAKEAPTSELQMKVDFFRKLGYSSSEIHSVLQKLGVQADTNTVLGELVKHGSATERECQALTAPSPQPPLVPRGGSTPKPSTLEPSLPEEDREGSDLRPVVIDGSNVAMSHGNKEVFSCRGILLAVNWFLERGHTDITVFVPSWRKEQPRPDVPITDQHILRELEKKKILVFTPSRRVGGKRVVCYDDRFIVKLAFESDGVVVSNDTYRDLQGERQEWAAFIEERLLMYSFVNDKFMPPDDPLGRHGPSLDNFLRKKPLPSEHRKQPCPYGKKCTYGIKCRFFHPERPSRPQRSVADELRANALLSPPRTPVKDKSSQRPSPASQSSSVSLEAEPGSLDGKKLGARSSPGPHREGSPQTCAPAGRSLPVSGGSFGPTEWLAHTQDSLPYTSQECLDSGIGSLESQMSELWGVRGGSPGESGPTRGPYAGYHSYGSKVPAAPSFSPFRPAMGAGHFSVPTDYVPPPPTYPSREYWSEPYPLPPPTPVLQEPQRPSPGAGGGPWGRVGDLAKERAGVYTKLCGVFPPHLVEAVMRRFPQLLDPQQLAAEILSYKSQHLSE

T3: SBP-GFP-UPF1-(610–914) (pEFh-SBP-GFP-hUPF1-(610–914)) (human) (UniProt Q92900)
T3 sequence: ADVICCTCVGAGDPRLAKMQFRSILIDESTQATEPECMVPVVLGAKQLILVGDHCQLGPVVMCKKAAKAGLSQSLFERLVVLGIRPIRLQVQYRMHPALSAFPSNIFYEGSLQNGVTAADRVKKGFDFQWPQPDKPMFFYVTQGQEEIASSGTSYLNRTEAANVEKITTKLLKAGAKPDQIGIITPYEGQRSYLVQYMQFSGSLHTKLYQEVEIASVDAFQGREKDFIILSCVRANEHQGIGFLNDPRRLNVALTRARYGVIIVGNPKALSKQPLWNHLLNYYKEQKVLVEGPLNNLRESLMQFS


Columns and labels:
Flag-Regnase-1 (mouse) = target: T1, Flag-Regnase-1 (mouse); assay: co-IP; anti-Flag antibody on protein G magnetic beads, lysates of transfected HeLa cells (0.1% NP-40, 150 mM NaCl, 10 mM Tris-HCl pH 8.0), 3 h at 4°C; Flag-Regnase-1 precipitated, UPF1 constructs blotted; λ protein phosphatase treatment of lysates and SMG1 knockdown are said to reduce or inhibit the association
[1] = target: T2, Flag-Regnase-1 K257A/R258A (KRAA) mutant (mouse); assay: as above
[2] = target: T3, SBP-GFP-UPF1-(610–914) (pEFh-SBP-GFP-hUPF1-(610–914)) (human); assay: co-IP; anti-GFP antibody on protein G magnetic beads, lysates of transfected HeLa cells (0.1% NP-40, 150 mM NaCl, 10 mM Tris-HCl pH 8.0), 3 h at 4°C; GFP-UPF1 fragments precipitated
[3] = target: eIF4E (human (endogenous in HeLa)) (UniProt P06730); assay: co-IP; anti-CBP80 or anti-eIF4E antibody on protein G magnetic beads, HeLa lysates in RNA IP lysis buffer (0.1% NP-40, 150 mM NaCl, 20 mM Tris-HCl pH 7.5, RNasin), 3 h at 4°C; western blot

Binder | binding (Flag-Regnase-1 (mouse)) | binding [1] | binding [2] | binding [3]
HA-UPF1 wild type (pSR-HA-hUPF1-WT, amino acids 6–1118) (protein, UniProt Q92900-2 6-1118) YGPSSQTLTFLDTEEAELLGADTQGSEFEFTDFTLPSQTQTPPGGPGGPGGGGAGGPGGAGAGAAAGQLDAQVGPEGILQNGAVDDSVAKTSQLLAELNFEEDEEDTYYTKDLPIHACSYCGIHDPACVVYCNTSKKWFCNGRGNTSGSHIVNHLVRAKCKEVTLHKDGPLGETVLECYNCGCRNVFLLGFIPAKADSVVVLLCRQPCASQSSLKDINWDSSQWQPLIQDRCFLSWLVKIPSEQEQLRARQITAQQINKLEELWKENPSATLEDLEKPGVDEEPQHVLLRYEDAYQYQNIFGPLVKLEADYDKKLKESQTQDNITVRWDLGLNKKRIAYFTLPKTDSDMRLMQGDEICLRYKGDLAPLWKGIGHVIKVPDNYGDEIAIELRSSVGAPVEVTHNFQVDFVWKSTSFDRMQSALKTFAVDETSVSGYIYHKLLGHEVEDVIIKCQLPKRFTAQGLPDLNHSQVYAVKTVLQRPLSLIQGPPGTGKTVTSATIVYHLARQGNGPVLVCAPSNIAVDQLTEKIHQTGLKVVRLCAKSREAIDSPVSFLALHNQIRNMDSMPELQKLQQLKDETGELSSADEKRYRALKRTAERELLMNADVICCTCVGAGDPRLAKMQFRSILIDESTQATEPECMVPVVLGAKQLILVGDHCQLGPVVMCKKAAKAGLSQSLFERLVVLGIRPIRLQVQYRMHPALSAFPSNIFYEGSLQNGVTAADRVKKGFDFQWPQPDKPMFFYVTQGQEEIASSGTSYLNRTEAANVEKITTKLLKAGAKPDQIGIITPYEGQRSYLVQYMQFSGSLHTKLYQEVEIASVDAFQGREKDFIILSCVRANEHQGIGFLNDPRRLNVALTRARYGVIIVGNPKALSKQPLWNHLLNYYKEQKVLVEGPLNNLRESLMQFSKPRKLVNTINPGARFMTTAMYDAREAIIPGSVYDRSSQGRPSSMYFQTHDQIGMISAGPSHVAAMNIPIPFNLVMPPMPPPGYFGQANGPAAGRGTPKGKTGRGGRQKNRFGLPGPSQTNLPNSQASQDVASQPFSQGALTQGYISMSQPSQMSQPGLSQPELSQDSYLGDEFKSQIDVALSQDSTYQGERAYQHGGVTGLSQY | binds | no binding | – | –
Flag-Regnase-1 (protein, UniProt Q5D1E7 1-596) MSDPCGTKPVQESNPTMSLWSLEDRHSSQGRPQPDQDPVAKEAPTSELQMKVDFFRKLGYSSSEIHSVLQKLGVQADTNTVLGELVKHGSATERECQALTAPSPQPPLVPRGGSTPKPSTLEPSLPEEDREGSDLRPVVIDGSNVAMSHGNKEVFSCRGILLAVNWFLERGHTDITVFVPSWRKEQPRPDVPITDQHILRELEKKKILVFTPSRRVGGKRVVCYDDRFIVKLAFESDGVVVSNDTYRDLQGERQEWKRFIEERLLMYSFVNDKFMPPDDPLGRHGPSLDNFLRKKPLPSEHRKQPCPYGKKCTYGIKCRFFHPERPSRPQRSVADELRANALLSPPRTPVKDKSSQRPSPASQSSSVSLEAEPGSLDGKKLGARSSPGPHREGSPQTCAPAGRSLPVSGGSFGPTEWLAHTQDSLPYTSQECLDSGIGSLESQMSELWGVRGGSPGESGPTRGPYAGYHSYGSKVPAAPSFSPFRPAMGAGHFSVPTDYVPPPPTYPSREYWSEPYPLPPPTPVLQEPQRPSPGAGGGPWGRVGDLAKERAGVYTKLCGVFPPHLVEAVMRRFPQLLDPQQLAAEILSYKSQHLSE | – | – | binds | no binding
